Laboratory results as given in the supplement of paper PMC3334620.
In all, about 33,000 sequences were measured (“E-score (-0.5 to 0.5)”: median about -0.0034, highest 2% from about 0.25 on). The list shows a part of the results.

Target: T1, Yap3 (UniProt P38749)
T1 sequence: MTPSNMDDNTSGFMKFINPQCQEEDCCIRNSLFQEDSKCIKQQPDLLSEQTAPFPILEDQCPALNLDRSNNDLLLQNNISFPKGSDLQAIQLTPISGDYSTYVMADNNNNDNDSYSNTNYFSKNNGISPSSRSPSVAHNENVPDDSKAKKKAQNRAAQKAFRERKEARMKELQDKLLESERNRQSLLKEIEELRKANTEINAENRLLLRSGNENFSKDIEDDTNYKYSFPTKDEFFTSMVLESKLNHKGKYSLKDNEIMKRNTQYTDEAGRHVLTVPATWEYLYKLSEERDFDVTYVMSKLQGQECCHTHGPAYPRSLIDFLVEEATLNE
Assay: PBM E-score (8-mer binding enrichment) (E-score (-0.5 to 0.5)); higher = stronger / more preferred TF binding
Conditions: protein concentration: 100 nM; construct: GST-full length
Method in brief: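 Yeast transcription factors, full-length or as DNA-binding domains, were expressed with a GST tag using PURExpress in vitro transcription/translation. At about 100-200 nM they were applied to universal all-10-mer Agilent arrays, double-stranded by primer extension on fresh or once-stripped slides. Fluorescent anti-GST detected bound protein, and masliner normalised the scans. E-scores for ungapped eight-base words, pooled with reverse complements, came from the Universal PBM Analysis Suite.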

First: ATGGGAGA
Second: CTGTTTCA
The “PBM E-score” value of the first is lower: 0.0263 for the first, 0.0525 for the second.

Going from TAAACTTA to AAAATCGT, the “PBM E-score” value rises from 0.0742 to 0.114.

First: AGATCCAT
Second: CAGAGCGC
The “PBM E-score” value of the first is higher: -0.174 for the first, -0.226 for the second.

Compared with CCGGCTCC, AGGGCCAC is higher in “PBM E-score” value: -0.42 for the first, -0.159 for the second.

Compared with AGTGCGGA, CAATATCC is lower in “PBM E-score” value: 0.2 for the first, 0.125 for the second.

First: CTGTCTCA
Second: AGCTTTGG
The “PBM E-score” value of the first is higher: -0.0216 for the first, -0.142 for the second.

Going from AAACAGAT to ACGTAATG, the “PBM E-score” value rises from 0.182 to 0.354.

Compared with GTTCGACA, CCGAAAAG is lower in “PBM E-score” value: 0.192 for the first, 0.0584 for the second.

First: GCGAAGCC
Second: ATCCCTGA
The “PBM E-score” value of the first is lower: -0.304 for the first, -0.0313 for the second.

Compared with AGGGTCCC, TGCCAGAA is higher in “PBM E-score” value: -0.209 for the first, 0.0609 for the second.

Going from GAGAAGAA to AGCGATTG, the “PBM E-score” value falls from -0.00995 to -0.0399.

Going from ACTGAGAG to AGGTTCTG, the “PBM E-score” value falls from -0.107 to -0.122.

First: CCTACATA
Second: GGGTCTGA
The “PBM E-score” value of the first is higher: 0.00754 for the first, -0.171 for the second.

First: AGTCGAAA
Second: GTGGCATA
The “PBM E-score” value of the first is higher: 0.0945 for the first, -0.0366 for the second.

First: GCCCGTCC
Second: ACTTCTAA
The “PBM E-score” value of the first is lower: -0.347 for the first, -0.0716 for the second.

Compared with ACGGTACG, TACTTGCA is higher in “PBM E-score” value: 0.0175 for the first, 0.077 for the second.

Compared with CTAAATCA, AGAAATAG is higher in “PBM E-score” value: 0.125 for the first, 0.188 for the second.

Compared with GATACACA, CATTTTGG is lower in “PBM E-score” value: 0.14 for the first, -0.0184 for the second.

Compared with ACACTGCT, CTCTCCGA is lower in “PBM E-score” value: -0.0253 for the first, -0.275 for the second.

Going from GTACCCGA to ACTGGACT, the “PBM E-score” value rises from -0.11 to -0.0398.

First: GGAACTCC
Second: TACATGAA
The “PBM E-score” value of the first is lower: -0.0128 for the first, 0.0212 for the second.

Compared with CACCTCGG, CACAGACG is lower in “PBM E-score” value: -0.0715 for the first, -0.123 for the second.

Going from AGGACATA to GTATCCTA, the “PBM E-score” value falls from 0.0128 to -0.0762.

Going from GACATAAA to GTCCTGTA, the “PBM E-score” value falls from 0.237 to 0.0436.

Going from GACAGTCA to GTAAATAA, the “PBM E-score” value rises from -0.252 to 0.267.

Compared with TAGTTTCA, ATATGCCG is lower in “PBM E-score” value: 0.124 for the first, 0.113 for the second.

First: AGTAGCTC
Second: ACTCGTGA
The “PBM E-score” value of the first is lower: -0.198 for the first, -0.0997 for the second.

Going from AACGTTCG to CGTCCCGC, the “PBM E-score” value falls from -0.109 to -0.138.

First: ATGTGAGC
Second: TCAGGTCA
The “PBM E-score” value of the first is higher: -0.0137 for the first, -0.0922 for the second.

Compared with AAGATAGC, AAGCTTTG is lower in “PBM E-score” value: 0.0504 for the first, 0.0373 for the second.

Going from AAGCACCT to GCATAAAA, the “PBM E-score” value rises from 0.0698 to 0.147.

First: CTCGGCAG
Second: AAGTGCGT
The “PBM E-score” value of the first is lower: -0.119 for the first, 0.0236 for the second.

Going from CCGGGTGA to CACCTGCG, the “PBM E-score” value rises from -0.0822 to -0.0278.

First: ATATTGGC
Second: AACAGAAT
The “PBM E-score” value of the first is higher: 0.0735 for the first, 0.0478 for the second.

First: ACGGAGCG
Second: GTATTCAA
The “PBM E-score” value of the first is lower: 0.00415 for the first, 0.231 for the second.

First: ATCCGCTG
Second: AACTTCCG
The “PBM E-score” value of the first is lower: -0.108 for the first, 0.0909 for the second.

Going from GAAAGAGA to CTTCTAGA, the “PBM E-score” value falls from 0.0574 to -0.131.

Going from ACCGTCCC to ACTTTAAT, the “PBM E-score” value rises from -0.165 to 0.187.

First: ATGCAGTA
Second: CGCATAAA
The “PBM E-score” value of the first is lower: 0.129 for the first, 0.203 for the second.

Going from ATATCACG to ATTAAGAC, the “PBM E-score” value falls from 0.181 to 0.161.

First: CCTGATTC
Second: ACCCCGGA
The “PBM E-score” value of the first is higher: 0.0132 for the first, -0.148 for the second.

Going from TGTACACA to GCACTCAA, the “PBM E-score” value falls from 0.191 to -0.241.

First: CCCCGGGG
Second: GCACGTGA
The “PBM E-score” value of the first is lower: -0.471 for the first, -0.0556 for the second.

Going from AACTTAAC to ATTTCTAC, the “PBM E-score” value falls from 0.226 to -0.0293.

Going from ACTACTTG to ATACCGTG, the “PBM E-score” value falls from 0.0999 to -0.0112.

Compared with CAATCCCG, GAAGCACA is lower in “PBM E-score” value: 0.144 for the first, 0.0508 for the second.

Compared with GCGTGTCC, ACACATGT is higher in “PBM E-score” value: -0.045 for the first, 0.0237 for the second.

Going from ATCCGCTA to CATTCAGA, the “PBM E-score” value falls from 0.0334 to 0.0332.

Compared with GGTTGAAC, ACCTGGGC is lower in “PBM E-score” value: 0.0646 for the first, -0.349 for the second.

Going from AAGAATCA to CATTAACG, the “PBM E-score” value falls from 0.214 to 0.119.

Compared with CGCCCCGC, ACATAGAC is higher in “PBM E-score” value: -0.104 for the first, 0.0417 for the second.

Compared with GACTGCAA, ACACATCC is higher in “PBM E-score” value: -0.0662 for the first, 0.0146 for the second.

Going from ATAGCCTG to AAGCCCAG, the “PBM E-score” value rises from -0.282 to -0.0605.

Going from AAGGCAAT to GGTGTTGA, the “PBM E-score” value falls from 0.0883 to -0.0895.

Compared with TCCAATAA, AACGTACT is higher in “PBM E-score” value: 0.157 for the first, 0.173 for the second.

Compared with AAAGTGCT, AAAAGGCA is higher in “PBM E-score” value: 0.0686 for the first, 0.115 for the second.

Compared with AGCACCGA, ATACTGGA is lower in “PBM E-score” value: 0.14 for the first, 0.135 for the second.

Going from CTGACAAA to AAAGGATT, the “PBM E-score” value falls from 0.154 to -0.0578.

Compared with CAACCACA, ACACTGCA is lower in “PBM E-score” value: 0.0438 for the first, -0.174 for the second.

Going from ACGTTTGG to ACCGGGGA, the “PBM E-score” value falls from -0.088 to -0.32.

Going from CTTCTTCC to AAGACGAC, the “PBM E-score” value rises from -0.132 to 0.0944.

Compared with AGCCAACC, TGAGATCA is lower in “PBM E-score” value: 0.117 for the first, -0.041 for the second.

Going from AGAGACTC to CGAGTGCG, the “PBM E-score” value rises from 0.00576 to 0.08.

Compared with CTAGAGTC, ATCAGGTG is higher in “PBM E-score” value: -0.31 for the first, -0.047 for the second.

Compared with ATGTATCG, GTGTAAAC is lower in “PBM E-score” value: 0.249 for the first, -0.0971 for the second.

Compared with AAGGCATC, CTAAAGCA is higher in “PBM E-score” value: -0.332 for the first, 0.105 for the second.

First: CCAATTCC
Second: ATTATCGC
The “PBM E-score” value of the first is lower: 0.0686 for the first, 0.304 for the second.

Compared with CGGAAAAA, AACTGTGG is lower in “PBM E-score” value: 0.237 for the first, 0.106 for the second.

First: ATGGACAA
Second: AGGGTATG
The “PBM E-score” value of the first is higher: 0.0861 for the first, 0.0575 for the second.

Going from AGGCAGGC to AATCAAAT, the “PBM E-score” value rises from -0.226 to 0.191.

Going from ACCAGAAC to AGAAAGGA, the “PBM E-score” value falls from 0.0271 to -0.123.

First: ATTTAACA
Second: GAGAGGAA
The “PBM E-score” value of the first is higher: 0.195 for the first, 0.128 for the second.

First: CGCGTCAG
Second: ATACTCAT
The “PBM E-score” value of the first is lower: -0.135 for the first, 0.0558 for the second.

First: GAAGGGAA
Second: AACTCGAG
The “PBM E-score” value of the first is lower: -0.19 for the first, 0.139 for the second.

Compared with CTTAATAC, ACCTCTCC is lower in “PBM E-score” value: 0.0534 for the first, -0.165 for the second.

Going from CGTCTCAG to AAAGATCG, the “PBM E-score” value falls from -0.00621 to -0.00787.

Compared with GAGAATCC, TAAGACTA is higher in “PBM E-score” value: -0.102 for the first, -0.0149 for the second.

First: GAATTTGA
Second: CGATGATA
The “PBM E-score” value of the first is higher: 0.15 for the first, 0.0199 for the second.

Compared with CAGATTAC, ACGATGTA is lower in “PBM E-score” value: 0.135 for the first, 0.0868 for the second.

Compared with CAGGGTCC, ACAGTGGA is higher in “PBM E-score” value: -0.29 for the first, 0.041 for the second.

Compared with CGAGCGTA, CATAGCTC is lower in “PBM E-score” value: -0.0301 for the first, -0.0875 for the second.

Going from CCCCCGCA to AGTCACAG, the “PBM E-score” value rises from -0.305 to 0.0936.

Compared with TTACGCAA, CAGAAAGG is lower in “PBM E-score” value: 0.223 for the first, -0.115 for the second.

Compared with AACAGTGA, GTACAGTA is higher in “PBM E-score” value: 0.0184 for the first, 0.0574 for the second.

Compared with CGATGGCA, CGCAATAG is higher in “PBM E-score” value: -0.145 for the first, 0.105 for the second.

Going from ACCGACGG to CAATACCC, the “PBM E-score” value rises from -0.0314 to 0.0449.
